{"sequences": {"note": "Sequences of proteins named here, by UniProt entry; tags and fusion partners are left off. A change or cut given only in a name is not applied to a line headed by its entry. Residues count along the entry.", "UniProt P01033, residues 24-207": "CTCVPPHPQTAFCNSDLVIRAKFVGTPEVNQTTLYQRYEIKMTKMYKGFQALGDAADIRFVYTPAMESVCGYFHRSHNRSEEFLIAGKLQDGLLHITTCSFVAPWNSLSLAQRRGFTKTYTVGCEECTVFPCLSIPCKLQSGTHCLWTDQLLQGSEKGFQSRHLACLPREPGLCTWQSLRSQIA", "UniProt P04233": "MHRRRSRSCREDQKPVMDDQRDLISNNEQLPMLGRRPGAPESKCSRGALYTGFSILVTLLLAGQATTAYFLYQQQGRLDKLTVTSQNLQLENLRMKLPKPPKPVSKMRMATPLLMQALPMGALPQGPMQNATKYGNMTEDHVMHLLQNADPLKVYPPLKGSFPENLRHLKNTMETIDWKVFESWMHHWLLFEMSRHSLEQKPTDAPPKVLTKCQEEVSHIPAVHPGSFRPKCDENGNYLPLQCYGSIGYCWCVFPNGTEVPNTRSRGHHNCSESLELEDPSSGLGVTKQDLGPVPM"}, "source": "paper PMC10399710", "key": {"[1]": {"target": "his6‐tagged human recombinant TIMP‐1 protein (rTIMP‐1) (human) (UniProt P01033)", "experiment": "co-IP; MDA-MB-231 cells incubated with rTIMP-1 for 15 min, washed, lysed; TIMP-1 precipitated with VT-4 antibody-coupled Dynabeads (1 h, 4 °C), CD74 detected by blot (LN-2); IgG1 beads as control; only the target purified"}, "[2]": {"target": "MHC class II‐associated invariant chain γ (CD74), endogenous in MDA‐MB‐231 cells (human (endogenous in MDA‐MB‐231)) (UniProt P04233)", "experiment": "proximity ligation; Duolink in situ PLA in fixed MDA-MB-231 cells under standard growth conditions (also after IFNγ; signal lost after CD74 siRNA); proximity < 40 nm"}, "[3]": {"target": "MHC class II‐associated invariant chain γ (CD74), endogenous in MDA‐MB‐231 cells (human (endogenous in MDA‐MB‐231)) (UniProt P04233)", "experiment": "proximity ligation; Duolink in situ PLA in fixed MDA-MB-231 cells after addition of rTIMP-1 (5 μg/mL); proximity < 40 nm; only the binder purified"}, "[4]": {"target": "MHC class II‐associated invariant chain γ (CD74), endogenous in MDA‐MB‐231 cells (human (endogenous in MDA‐MB‐231)) (UniProt P04233)", "experiment": "co-IP; MDA-MB-231 cells incubated with rTIMP-1 for 15 min, washed, lysed; CD74 precipitated with LN-2 antibody-coupled Dynabeads (1 h, 4 °C), TIMP-1 detected by blot (VT-7); IgG1 beads as control; only the binder purified"}}, "note": "These are yes or no findings as the source states them, for the method shown. In cells and extracts the contact can be indirect. Some entries that bind do so weakly or less than the wild type."}
{"substance": "MHC class II‐associated invariant chain γ (CD74), endogenous in MDA‐MB‐231 cells (from UniProt P04233 1-296)", "values": [{"measurement": "binding", "setting": "[1]", "result": "binds"}]}
{"substance": "TIMP‐1, endogenous in MDA‐MB‐231 cells (from UniProt P01033 24-207)", "values": [{"measurement": "binding", "setting": "[2]", "result": "binds"}]}
{"substance": "his6‐tagged human recombinant TIMP‐1 protein (rTIMP‐1) (from UniProt P01033 24-207)", "values": [{"measurement": "binding", "setting": "[3]", "result": "binds"}, {"measurement": "binding", "setting": "[4]", "result": "binds"}]}
